No constants are given. Whether binding was seen depends on the method and setting. Binding seen in cells or lysates may run through a third protein. For some of these results: A result given as binding can be weak or reduced; the word gives no strength. Where a sequence is shown, tags or fusion partners need not be part of it.

Test [1] addresses T1, Myc-tagged mouse stimulator of interferon gene (MmSTING) (mouse) (UniProt Q3TBT3).
T1 sequence: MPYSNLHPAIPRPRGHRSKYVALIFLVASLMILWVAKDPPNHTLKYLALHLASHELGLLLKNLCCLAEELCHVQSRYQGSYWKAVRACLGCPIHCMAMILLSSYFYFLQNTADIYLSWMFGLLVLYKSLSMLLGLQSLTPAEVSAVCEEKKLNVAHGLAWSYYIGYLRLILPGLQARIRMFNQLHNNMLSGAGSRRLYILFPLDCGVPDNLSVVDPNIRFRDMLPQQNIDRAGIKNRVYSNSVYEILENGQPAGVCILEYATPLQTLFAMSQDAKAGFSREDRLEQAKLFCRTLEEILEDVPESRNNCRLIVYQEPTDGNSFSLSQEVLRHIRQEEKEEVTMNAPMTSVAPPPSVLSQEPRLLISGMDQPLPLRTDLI
Briefly: co-IP; HEK293T co-transfected with Flag- and Myc-tagged expression plasmids for 24 h, then stimulated with 1 ug/ml poly(dA:dT) for 6 h; lysed in homo buffer with protease inhibitors, sonicated; lysate immunoprecipitated with anti-Myc overnight at 4 C, protein A sepharose 4 h at 4 C, washed 3 times with PBS; blot with anti-Flag and anti-Myc.

The target in test [2] is T1, Myc-tagged mouse stimulator of interferon gene (MmSTING) (mouse). Briefly: condition: only after stimulation of the cells with HMW poly(I:C) (1 ug/ml, 6 h); co-IP; as a1, but cells stimulated with 1 ug/ml HMW poly(I:C) for 6 h instead of poly(dA:dT); anti-Myc immunoprecipitation, blot with anti-Flag and anti-Myc.

Consider “Flag-tagged DEADc domain of PmDDX41 (DeadPm) (Penaeus monodon) (domain or fragment)”, for which the binding result in test [1] was “binds”; in test [2] it was “no binding”.

As for “Flag-tagged full-length PmDDX41 (Penaeus monodon)”, the binding entry was “binds” in test [1] and “no binding” in test [2].

These data come from article PMC6736559.
